Data from publication PMC6715661, “Cardiac MLC2 kinase is localized to the Z-disc and interacts with α-actinin2” (Scientific Reports, 2019).
No constants are given. Whether binding was seen depends on the method and setting. In cells and extracts the contact can be indirect. A result given as binding can be weak or reduced; the word gives no strength. Sequences can lack the tags named with a protein.

Biological target: T1, HA-cMLCK, full length, expressed in HEK293 cells (mouse) (UniProt Q3UIZ8)
T1 sequence: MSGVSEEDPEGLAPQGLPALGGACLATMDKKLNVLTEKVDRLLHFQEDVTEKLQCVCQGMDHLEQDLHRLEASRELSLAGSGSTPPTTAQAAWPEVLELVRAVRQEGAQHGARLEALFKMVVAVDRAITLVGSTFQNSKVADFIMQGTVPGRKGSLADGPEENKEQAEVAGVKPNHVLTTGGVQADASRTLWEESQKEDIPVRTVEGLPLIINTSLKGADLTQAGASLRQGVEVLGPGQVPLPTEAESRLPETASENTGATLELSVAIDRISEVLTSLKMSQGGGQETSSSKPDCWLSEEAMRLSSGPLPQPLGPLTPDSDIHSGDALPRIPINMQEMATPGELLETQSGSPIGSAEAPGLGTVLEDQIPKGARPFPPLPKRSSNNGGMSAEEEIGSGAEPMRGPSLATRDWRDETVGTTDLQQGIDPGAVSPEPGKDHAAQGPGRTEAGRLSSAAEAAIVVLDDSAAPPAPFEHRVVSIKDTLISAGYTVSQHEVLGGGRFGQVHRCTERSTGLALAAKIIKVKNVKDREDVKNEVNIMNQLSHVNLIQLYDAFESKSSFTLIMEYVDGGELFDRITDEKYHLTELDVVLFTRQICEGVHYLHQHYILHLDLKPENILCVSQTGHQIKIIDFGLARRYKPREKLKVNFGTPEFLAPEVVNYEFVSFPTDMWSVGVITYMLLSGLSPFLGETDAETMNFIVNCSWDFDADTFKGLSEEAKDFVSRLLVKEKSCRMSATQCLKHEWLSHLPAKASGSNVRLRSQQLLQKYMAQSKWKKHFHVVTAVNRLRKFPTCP
Assay: co-IP; HA-tagged cMLCK forms and Myc-tagged α-actinin2 forms mixed in vitro; how the complex was isolated and detected is not told for this experiment

Myc-tagged N-terminus deletion mutant of α-actinin2 with the ABS2 domain (mouse) (domain or fragment)
binding: binds
